From article PMC8791637 come the findings set out here.

No constants are given. Whether binding was seen depends on the method and setting. A result given as binding can be weak or reduced; the word gives no strength.

For the assay, the target named is His6-sumo-kindlin. Nature of the assay: pull-down; His6-sumo-kindlin (100 uL of 10 uM) held on Ni-NTA resin in spin columns; 10 uM Cas or pCas added, 2 hr at 4 C; 20 mM Tris pH 7.5, 150 mM NaCl, 10 mM imidazole; eluted with 300 mM imidazole; SDS-PAGE, Coomassie; both purified.

B1: unphosphorylated p130Cas (protein, UniProt Q61140 1-874)
chain: MTVPNVLAKALYDNVAESPDELSFRKGDIMTVLERDTQGLDGWWLCSLHGRQGIVPGNRLKILVGMYDKKPVGPGPGPPATPPQPQPSLPQGVHAPVPPASQYSPMLPTAYQPQSDNVYLVPTPSKTQQGLYQAPGPNPQFQSPPAKQTSTFSKQTPHHSFPSPATDLYQVPPGPGSPAQDIYQVPPSAGIGHDIYQVPPSLDTRGWEGTKPPAKVVVPTRVGQGYVYEAAQTEQDEYDTPRHLLAPGPQDIYDVPPVRGLLPNQYGQEVYDTPPMAVKGPNGRDPLLDVYDVPPSVEKGLLSSSHHSVYDVPPSVSKDVPDGPLLREETYDVPPAFAKPKPFDPTRHPLILAAPPPDSPAAEDVYDVPPPAPDLYDVPPGLRRPGPGTLYDVPRERVLPPEVADGSVVDDGVYAVPPPAEREAPTDGKRLSASSTGSTRSSQSASSLEVVVPGREPLELEVAVESLARLQQGVSTTVAHLLDLVGSASGPGGWRGTSEPQEPPAQDLKAAVAAVHGAVHELLEFARGAVSNATHTSDRTLHAKLSRQLQKMEDVYQTLVVHGQVLDSGRGSPGFTPEDLDRLVACSRAVPEDAKQLASFLHGNASLLFRRTKAPGPGPEGSSSLHPNPTDKASSIQSRPLPSPPKFTSQDSPDGQYENSEGGWMEDYDYVHLQGKEEFEKTQKELLERGNIMRQGKGQLELQQLKQFERLEQEVSRPIDHDLANWTPAQPLVPGRTGGLGPSDRQLLLFYLEQCEANLTTLTDAVDAFFTAVATNQPPKIFVAHSKFVILSAHKLVFIGDTLSRQAKAADVRSQVTHYSNLLCDLLRGIVATTKAAALQYPSPSAAQDMVDRVKELGHSTQQFRRVLGQLAAA
On to B1, for which the binding entry is given as “binds”.
